PubChem BioAssay AID1224830, NIAID | 2016

Purpose: 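Host factors that control LPS-induced TNF expression in human macrophages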 (primary screen)
Cells: human THP-1 monocytic leukaemia cells, TNF dual-luciferase reporter clone, PMA-differentiated to macrophage-like cells
Knock-down reagent: siRNA pool against human genes, 50 nM
Duration: LPS for 4 h, given about 3 days after siRNA transfection
Conditions: bacterial LPS (TLR4 ligand), 10 ng/ml
Read-out: 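Ratio of firefly to renilla light, scaled to the plate median and expressed as a robust z-score per replicate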
Direction: TNF reporter robust z-score: higher = stronger TNF reporter response to LPS
Call rule: 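a well is active when its z-score exceeds 2.8 or falls below -1.5; control wells carry no call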
Shown is a random part of about 18,000 reagents. About 2,900 of all reagents (16%) were called active. 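Calls are made per well; low scores hint the gene aids the LPS response, high scores that it dampens it.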 Repeated entries: four replicate wells of each siRNA pool.

CFP (GeneID 5199) | TNF reporter robust z-score = 3.16; Call = active
CFP (GeneID 5199) | TNF reporter robust z-score = 0.59; Call = inactive
CFP (GeneID 5199) | TNF reporter robust z-score = 1.77; Call = inactive
CFP (GeneID 5199) | TNF reporter robust z-score = 2.63; Call = inactive
KRT32 (GeneID 3882) | TNF reporter robust z-score = 0.86; Call = inactive
KRT32 (GeneID 3882) | TNF reporter robust z-score = -0.22; Call = inactive
KRT32 (GeneID 3882) | TNF reporter robust z-score = -0.39; Call = inactive
KRT32 (GeneID 3882) | TNF reporter robust z-score = -0.3; Call = inactive
PECR (GeneID 55825) | TNF reporter robust z-score = 0.12; Call = inactive
PECR (GeneID 55825) | TNF reporter robust z-score = -0.57; Call = inactive
PECR (GeneID 55825) | TNF reporter robust z-score = 0.3; Call = inactive
PECR (GeneID 55825) | TNF reporter robust z-score = 1.09; Call = inactive
HOXD13 (GeneID 3239) | TNF reporter robust z-score = 0.65; Call = inactive
HOXD13 (GeneID 3239) | TNF reporter robust z-score = 0.21; Call = inactive
HOXD13 (GeneID 3239) | TNF reporter robust z-score = 0.16; Call = inactive
HOXD13 (GeneID 3239) | TNF reporter robust z-score = 0.66; Call = inactive
ROMO1 (GeneID 140823) | TNF reporter robust z-score = -0.03; Call = inactive
ROMO1 (GeneID 140823) | TNF reporter robust z-score = 1.51; Call = inactive
ROMO1 (GeneID 140823) | TNF reporter robust z-score = 0.52; Call = inactive
ROMO1 (GeneID 140823) | TNF reporter robust z-score = 0.5; Call = inactive
ASCL3 (GeneID 56676) | TNF reporter robust z-score = 0.14; Call = inactive
ASCL3 (GeneID 56676) | TNF reporter robust z-score = 0.4; Call = inactive
ASCL3 (GeneID 56676) | TNF reporter robust z-score = 0.43; Call = inactive
ASCL3 (GeneID 56676) | TNF reporter robust z-score = -0.57; Call = inactive
FKBP15 (GeneID 23307) | TNF reporter robust z-score = 0.58; Call = inactive
FKBP15 (GeneID 23307) | TNF reporter robust z-score = 1.45; Call = inactive
FKBP15 (GeneID 23307) | TNF reporter robust z-score = -0.54; Call = inactive
FKBP15 (GeneID 23307) | TNF reporter robust z-score = -0.46; Call = inactive
SOBP (GeneID 55084) | TNF reporter robust z-score = -1.51; Call = active
SOBP (GeneID 55084) | TNF reporter robust z-score = -1.72; Call = active
SOBP (GeneID 55084) | TNF reporter robust z-score = -1.69; Call = active
SOBP (GeneID 55084) | TNF reporter robust z-score = -1.77; Call = active
SALL2 (GeneID 6297) | TNF reporter robust z-score = -0.84; Call = inactive
SALL2 (GeneID 6297) | TNF reporter robust z-score = -0.3; Call = inactive
SALL2 (GeneID 6297) | TNF reporter robust z-score = -0.51; Call = inactive
SALL2 (GeneID 6297) | TNF reporter robust z-score = 0.56; Call = inactive
SORCS1 (GeneID 114815) | TNF reporter robust z-score = 1.41; Call = inactive
SORCS1 (GeneID 114815) | TNF reporter robust z-score = 1.67; Call = inactive
SORCS1 (GeneID 114815) | TNF reporter robust z-score = 1.02; Call = inactive
SORCS1 (GeneID 114815) | TNF reporter robust z-score = 2.25; Call = inactive
ORAI3 (GeneID 93129) | TNF reporter robust z-score = -1.12; Call = inactive
ORAI3 (GeneID 93129) | TNF reporter robust z-score = -1; Call = inactive
ORAI3 (GeneID 93129) | TNF reporter robust z-score = -1.44; Call = inactive
ORAI3 (GeneID 93129) | TNF reporter robust z-score = -0.76; Call = inactive
PGM2 (GeneID 55276) | TNF reporter robust z-score = -0.2; Call = inactive
PGM2 (GeneID 55276) | TNF reporter robust z-score = 2.9; Call = active
PGM2 (GeneID 55276) | TNF reporter robust z-score = 0.88; Call = inactive
PGM2 (GeneID 55276) | TNF reporter robust z-score = -0.19; Call = inactive

No new results follow: 5 of the entries above.
SOBP (GeneID 55084) | TNF reporter robust z-score = -1.51; Call = active
SOBP (GeneID 55084) | TNF reporter robust z-score = -1.72; Call = active
SOBP (GeneID 55084) | TNF reporter robust z-score = -1.69; Call = active
SOBP (GeneID 55084) | TNF reporter robust z-score = -1.77; Call = active
SALL2 (GeneID 6297) | TNF reporter robust z-score = -0.84; Call = inactive
